Measured values taken from paper PMC10923651.
These are yes or no findings as the source states them, for the method shown. Binding seen in cells or lysates may run through a third protein. Some entries that bind do so weakly or less than the wild type.

Sequences of proteins named here, by UniProt entry; tags and fusion partners are left off.
UniProt A0A125YIH2: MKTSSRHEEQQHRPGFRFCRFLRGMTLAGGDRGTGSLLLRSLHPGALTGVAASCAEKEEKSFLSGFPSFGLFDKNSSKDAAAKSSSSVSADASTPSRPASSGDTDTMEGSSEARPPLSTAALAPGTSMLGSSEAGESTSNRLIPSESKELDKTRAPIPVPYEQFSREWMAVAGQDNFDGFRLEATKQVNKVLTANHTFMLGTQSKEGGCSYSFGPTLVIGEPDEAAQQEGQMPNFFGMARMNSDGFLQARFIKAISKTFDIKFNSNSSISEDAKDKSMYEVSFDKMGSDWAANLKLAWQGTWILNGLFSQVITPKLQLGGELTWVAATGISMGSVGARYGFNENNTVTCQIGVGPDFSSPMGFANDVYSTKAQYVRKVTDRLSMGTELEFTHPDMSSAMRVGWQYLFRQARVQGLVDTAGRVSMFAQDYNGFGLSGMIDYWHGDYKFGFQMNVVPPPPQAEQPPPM
UniProt Q9BPL7: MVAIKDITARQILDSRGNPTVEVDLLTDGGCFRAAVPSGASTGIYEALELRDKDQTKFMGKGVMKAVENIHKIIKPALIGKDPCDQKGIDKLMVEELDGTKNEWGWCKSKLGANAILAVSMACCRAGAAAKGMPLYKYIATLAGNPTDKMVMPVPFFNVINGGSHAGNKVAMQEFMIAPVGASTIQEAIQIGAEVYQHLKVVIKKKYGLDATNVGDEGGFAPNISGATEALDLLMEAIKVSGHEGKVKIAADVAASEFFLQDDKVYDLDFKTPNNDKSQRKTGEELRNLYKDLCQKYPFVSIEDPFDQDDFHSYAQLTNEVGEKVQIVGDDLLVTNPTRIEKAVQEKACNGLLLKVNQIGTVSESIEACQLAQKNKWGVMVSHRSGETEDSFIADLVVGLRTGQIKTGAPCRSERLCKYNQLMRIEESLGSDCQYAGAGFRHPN

Experiments:
[1] = target: HA-tagged TgNup302 (Toxoplasma gondii); assay: co-IP; anti-HA magnetic beads; full cell lysate of 4 × 10^8 to 2 × 10^9 parasites in 2% DDM/PBS/proteinase inhibitor, 16–24 h at 4°C, washes in PBS; fractions analysed by Western blot
[2] = target: N-terminally HA-tagged TgNup503 (Toxoplasma gondii) (UniProt S8GIN8); assay: as above

| Substance | binding [1] | binding [2] |
| --- | --- | --- |
| TgTom40 (from UniProt A0A125YIH2 1-466) | binds | binds |
| TgENO2 (from UniProt Q9BPL7 1-444) |  | no binding |
